Patent publication US20120149026A1, “INSULIN RESISTANCE MARKER” (SHIMADZU CORPORATION, priority 2009, published 2012)
For at least one compound, name, drawing or mass did not settle the structure.

What was measured:
[1] = system: proepithelin protein; test: Analysis of proepithelin protein by Western blotting in insulin resistance-induced adipocytes; assay type: cell-based, mouse; conditions: matured 3T3-L1 adipocytes, concentrations of TNFα (ng/ml) and dexamethazone (nM) changed, FIG. 3
Protocol: Using the matured adipocyte at the eighth or later day after the differentiation inducing treatment, the cells were cultured in an adipocyte maintenance medium added with 20 nM dexamethazone for eight days to induce insulin resistance, and an adipocyte in which insulin resistance was induced by dexamethazone was obtained. On the other hand, using the matured adipocyte at the eighth or later day after the differentiation inducing treatment, the cells were cultured for four days in an adipocyte maintenance medium added with 4 ng/mL TNFα to induce insulin resistance, and an adipocyte in which insulin resistance was induced by TNFα was obtained.
A matured adipocyte in which insulin resistance was induced by the method of Reference Example 2 was solubilized in a TNE buffer (1% (w/w) Nonidet P-40, 150 mM sodium chloride, 20 mM Tris-hydrochloride (pH 7.4), 2 mM EDTA, 10 μg/mL leupeptin, 10 μg/mL aprotinine, 5 mM mercaptoethanol, 1 mM: PMSF, 1 mM Na3VO4, 10 μM sodium molybdate, and 50 mM sodium fluoride), and a protein was extracted. The extracted protein was separated by SDS-polyacrylamide gel electrophoresis (SDS-PAGE), and then transferred to a polyvinylidene fluoride (PVDF) membrane or a nitrocellulose membrane. […]

[2] = system: proepithelin protein; test: Effect of thiazolidine based compound on upregulation of proepithelin protein (Western blotting); assay type: cell-based, mouse; conditions: 10 μM pioglitazone added together with TNFα or dexamethazone; 3T3-L1 adipocytes; relative to GADPH, FIG. 5B

Structure (SMILES) | upregulation of proepithelin protein with varied inducer concentration [1] | effect on upregulation of proepithelin protein by induction of insulin resistance [2]
C[C@@H]1C[C@H]2[C@@H]3CCC4=CC(=O)C=C[C@]4(C)[C@@]3(F)[C@@H](O)C[C@]2(C)[C@@]1(O)C(=O)CO [dexamethazone] | dependent on the concentration | 
CCc1ccc(CCOc2ccc(CC3SC(=O)NC3=O)cc2)nc1 (centres unmarked) [pioglitazone] |  | suppressed significantly (p-value <0.05), namely completely to the expression level equivalent to that of the control
